# The whole screen tested about 300,000 compounds, of which about 5,400 (1.8%) were called active. Inconclusive results, whose numbers are uncertain, are shown with a selection of clear calls. Calls follow the shape of the full dose curve; tested in HEK293 cells. Where the call is inconclusive, the potency comes from a doubtful curve fit.
# Assay: qHTS for inhibitors of binding or entry into cells for Marburg Virus
# Conditions: Marburg virus pseudotyped entry inhibition, cell reporter; activity change, negative = inhibition: at 37.8 µM (top of the series) unless noted
# % is scaled to controls: 0 for no effect and ±100 for the full control effect; potency is read from the fitted curve at half-maximal effect.
Compound,Potency,"activity change, negative = inhibition"
Cc1cc(C)n(-c2nc(NC(C)C)nc(NC(C)C)n2)n1,"inconclusive: 8.2 µM [inhibitor, partial curve, poor fit]",
CN(C)C(CNC(=O)c1cc(S(=O)(=O)N(C)c2ccccc2)ccc1Cl)c1cccs1 (stereo unspecified),"inconclusive: 25.1 µM [inhibitor, single point]",
Cn1c(=O)c2c(-c3ccccc3)n3c(c2n(C)c1=O)C(c1ccc([N+](=O)[O-])cc1)Nc1ccccc1-3 (stereo unspecified),"inconclusive: 6.31 µM [inhibitor, single point]",
CCCn1c(C)cc(C(=O)COc2ccc(C)nc2[N+](=O)[O-])c1C,"inconclusive: 0.126 µM [inhibitor, full curve]",
CCCCNC(=O)CSc1nc2ccccc2n1S(=O)(=O)c1ccc(Cl)cc1,"inconclusive: 31.6 µM [activator, single point]",
O=S(=O)(c1ccc2ccccc2c1)N1CCC(c2nc(-c3ccncc3)no2)CC1,"inconclusive: 29.1 µM [inhibitor, single point]",
COc1ccc(C(=O)Nc2nc(-c3ccc(Br)cc3)ns2)cc1,,inactive: 3.77% [at 46.1 µM]
Cc1csc2nc(COc3ccc(NC(=O)c4ccccc4F)cc3)cc(=O)n12,,inactive: -0.757% [at 46.1 µM]
Cc1ccc(S(=O)(=O)N2CCN(Cc3ccccc3)CC2)c(C)c1N(C)S(=O)(=O)c1ccccc1,"inconclusive: 35.5 µM [inhibitor, partial curve, poor fit]",
COc1ccc(OCC(=O)Nc2ccc(OC)c(S(=O)(=O)N3CCCCC3)c2)cc1,"inconclusive: 11.2 µM [inhibitor, partial curve]",
O=C(OCC(=O)N1CCOCC1)c1ccccc1O,"inconclusive: 7.94 µM [activator, single point]",
O=C(CCOc1ccccc1F)N1CCN(c2ccccc2O)CC1,"inconclusive: 3.16 µM [activator, single point]",
CC(=O)N1CCN(S(=O)(=O)c2cccc(C(=O)NNC(=O)COc3ccc(Cl)cc3C)c2)CC1,"inconclusive: 39.8 µM [inhibitor, single point]",
CN(C)C(CNc1ncnc2sc3c(c12)CCCCC3)c1ccco1 (stereo unspecified),"inconclusive: 28.2 µM [inhibitor, partial curve, poor fit]",
OC(COCC1CC=CCC1)Cn1cnc2ccccc21 (stereo unspecified),"inconclusive: 0.651 µM [activator, partial curve]",
CCN(CC(=O)Nc1c(F)cccc1F)C(=O)c1cccc(S(=O)(=O)N2CCN(c3ccccc3)CC2)c1,"inconclusive: 0.224 µM [inhibitor, full curve, poor fit]",
CCCOc1ccc(N2C(=O)CC(N(CCc3ccc(OC)cc3)C(=O)c3cccc(F)c3)C2=O)cc1 (stereo unspecified),"inconclusive: 10 µM [inhibitor, partial curve, poor fit]",
NC(=O)c1ccc(NC(=O)C#Cc2ccccc2)cc1,active: 4.47 µM,
Cc1cc(C(=O)CCl)c(C)n1Cc1ccco1,"inconclusive: 35.5 µM [inhibitor, single point]",
CCOC(=O)c1sc2nc(-c3cccnc3)ccc2c1N,"inconclusive: 7.08 µM [inhibitor, partial curve, poor fit]",
O=C(N/N=C/c1ccc(COc2ccc(Br)cc2)o1)c1ccco1,,inactive: 5.61%

Compound,Potency,"activity change, negative = inhibition"
COc1ccc(S(=O)(=O)NCCC(=O)OCC(=O)NC2CC2)cc1,"inconclusive: 35.5 µM [activator, single point]",
COc1ccc(-c2[nH]c(-c3ccc(C)cc3)nc2SCC(=O)Nc2nccs2)cc1,"inconclusive: 11.2 µM [inhibitor, partial curve, poor fit]",
O=C(Nc1cccnc1)c1ccc(S(=O)(=O)c2ccc(Cl)cc2)cc1,"inconclusive: 11.2 µM [inhibitor, partial curve, poor fit]",
O=C(COc1ccc(Br)cc1)N1CCCCCC1,,inactive: 14.5%
O=C(N/N=C/c1ccc2c(c1)OCO2)c1cc(-c2ccccc2)nc2ccccc12,"inconclusive: 28.2 µM [inhibitor, single point]",
Cc1cc(C)n2ncc(/C(N)=N/OC(=O)c3ccccc3F)c2n1,,inactive: -2.24%
CCN1C=C(C(=O)OC)C(c2cccc(C)c2)C(C(=O)OC)=C1,,inactive: -24.6%
Cc1ccc2c(c1)c1c3n2CCN=C3CCC1,"inconclusive: 23.1 µM [inhibitor, single point]",
O=S(=O)(Nc1ccc2c(c1)OCO2)c1cccs1,,inactive: 12.8%
O=c1c2ccccc2cnn1Cc1nnc(-c2cccs2)o1,"inconclusive: 35.5 µM [activator, partial curve, poor fit]",
CC(C)=C(NC(=O)c1ccccc1)C(=O)N/N=C(\C)c1ccccc1O,"inconclusive: 3.16 µM [activator, full curve, poor fit]",
O=S(=O)(CC(CN1CCCCC1)N1CCCCC1)c1ccc2ccccc2c1 (stereo unspecified),active: 3.55 µM,
CC(C)(C)c1ccc(S(=O)(=O)N2CCC(NC(=O)c3ccco3)CC2)cc1,"inconclusive: 0.562 µM [activator, full curve, poor fit]",
COc1ccc(/C=C/C(=O)c2ccccc2O)cc1CN1CCOCC1,active: 11.2 µM,
CC(C)(C)CC(C)(C)NCC(O)COc1c(F)cc(Br)cc1F (stereo unspecified),"inconclusive: 8.91 µM [inhibitor, partial curve, poor fit]",
O=C(Nc1nc(-c2cccs2)c(-c2cccs2)s1)C1(c2ccccc2)CC1,"inconclusive: 3.16 µM [inhibitor, partial curve, poor fit]",
Cc1n[nH]c(=O)c2c(NC(=O)CSc3nc4ccccc4c(=O)n3CCCOC(C)C)oc(C)c12,"inconclusive: 25.1 µM [inhibitor, single point]",
Cc1ccc(NC(=O)CSCC(=O)N(C)CC(=O)Nc2ccccc2C(F)(F)F)cc1,"inconclusive: 1.26 µM [inhibitor, single point]",
COC[C@H]1O[C@]2(c3ccccc3)CO[C@@H]1[C@@H](C=Cc1ccccc1)C2,,inactive: 26.1% [at 14.2 µM]
CCOC(=O)/C(=C/c1ccc(OC(F)F)cc1)C1=Nn2c(nnc2-c2ccc(Cl)cc2)SC1,"inconclusive: 10 µM [inhibitor, partial curve, poor fit]",

# An excerpt of these results, with bars between the fields.
Compound | Potency | activity change, negative = inhibition
O=c1c2ccccc2cnn1Cc1nnc(-c2cccs2)o1 | inconclusive: 35.5 µM [activator, partial curve, poor fit] | 
CC(C)=C(NC(=O)c1ccccc1)C(=O)N/N=C(\C)c1ccccc1O | inconclusive: 3.16 µM [activator, full curve, poor fit] | 
O=S(=O)(CC(CN1CCCCC1)N1CCCCC1)c1ccc2ccccc2c1 (stereo unspecified) | active: 3.55 µM | 
